Results are given in words; binding and its absence hold for the method and conditions named. In cells and extracts the contact can be indirect. These calls come from enrichment with a bait or labelling near it, and not all partners need be listed.

Amino acid sequences for entries named in this document (tags omitted).
UniProt Q88A90: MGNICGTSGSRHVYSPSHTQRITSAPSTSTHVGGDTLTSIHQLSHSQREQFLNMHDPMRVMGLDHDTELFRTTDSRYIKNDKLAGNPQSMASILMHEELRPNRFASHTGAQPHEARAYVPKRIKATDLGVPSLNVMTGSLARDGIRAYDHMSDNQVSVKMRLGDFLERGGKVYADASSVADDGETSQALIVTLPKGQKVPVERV

This experiment concerns the target HopF2-BirA*-FLAG-HA (Pseudomonas syringae) (UniProt Q88A90). Put plainly: proximity labelling; BioID in leaves of transgenic Arabidopsis expressing HopF2-BirA*-FLAG-HA; 2 mM biotin infiltrated, 30 uM dexamethasone 24 h at 25 °C; streptavidin sepharose purification of combined soluble and insoluble fractions, on-bead digestion, LC-MS/MS; SAINT against Col-0, BFDR ≤ 0.01; preys significant with HopF2-BirA* but not with BirA* alone.

B1: STP1 (protein, UniProt P23586 1-522)
chain: MPAGGFVVGDGQKAYPGKLTPFVLFTCVVAAMGGLIFGYDIGISGGVTSMPSFLKRFFPSVYRKQQEDASTNQYCQYDSPTLTMFTSSLYLAALISSLVASTVTRKFGRRLSMLFGGILFCAGALINGFAKHVWMLIVGRILLGFGIGFANQAVPLYLSEMAPYKYRGALNIGFQLSITIGILVAEVLNYFFAKIKGGWGWRLSLGGAVVPALIITIGSLVLPDTPNSMIERGQHEEAKTKLRRIRGVDDVSQEFDDLVAASKESQSIEHPWRNLLRRKYRPHLTMAVMIPFFQQLTGINVIMFYAPVLFNTIGFTTDASLMSAVVTGSVNVAATLVSIYGVDRWGRRFLFLEGGTQMLICQAVVAACIGAKFGVDGTPGELPKWYAIVVVTFICIYVAGFAWSWGPLGWLVPSEIFPLEIRSAAQSITVSVNMIFTFIIAQIFLTMLCHLKFGLFLVFAFFVVVMSIFVYIFLPETKGIPIEEMGQVWRSHWYWSRFVEDGEYGNALEMGKNSNQAGTKHV
In the case of B1, the binding entry is given as “binds”.

B2: RIN4 (protein, UniProt Q8GYN5 1-211)
chain: MARSNVPKFGNWEAEENVPYTAYFDKARKTRAPGSKIMNPNDPEYNSDSQSQAPPHPPSSRTKPEQVDTVRRSREHMRSREESELKQFGDAGGSSNEAANKRQGRASQNNSYDNKSPLHKNSYDGTGKSRPKPTNLRADESPEKVTVVPKFGDWDENNPSSADGYTHIFNKVREERSSGANVSGSSRTPTHQSSRNPNNTSSCCCFGFGGK
B2: the binding result is “binds”.

Source of the values: PMC6004002.
